Measured values reported in PubChem BioAssay AID588497 (NMMLSC, 2011).
Among all 360,000 compounds or so, about 780 (0.22%) were called active. Inconclusive results, whose numbers are uncertain, are shown with a selection of clear calls. No stated cut-off is given here; in the data, active means inhibition above about 35% (passing the limit was not always enough); inconclusive means no clear call, values can overlap the other calls.

test system: Botulinum neurotoxin type F light chain protease (Clostridium botulinum); test: BoNT/F light chain protease inhibitors, primary screen, biochemical, flow cytometry, MLPCN library (AID 588497); settings: Multiplex microsphere protease cleavage assay, at 10 µM, stronger effect = higher value; further: plate controls were buffer without enzyme for full effect and enzyme alone for no effect

SMILES	inhibition
Cc1ccc(S(=O)(=O)N2CCC(C(=O)Nc3ccccc3N3CCCC3)CC2)c(C)c1	inconclusive: -11.4%
CC(C)(C)Cc1c(-c2ccc(C#N)cc2)nc2c(Cl)cc(C(F)(F)F)cn12	inactive: -13.5%
COc1ccc(CCNC(=O)COc2cc(=O)n(C)c3ccccc23)cc1OC	inactive: -3.1%
Cn1c(=O)c2c(nc(NCc3ccc4c(c3)OCO4)n2Cc2ccccc2)n(C)c1=O	inactive: -2.4%
CC(=O)Nc1ccc(S(=O)(=O)NCCC(=O)NC2CCCCCC2)cc1	inconclusive: -306%
COc1ccccc1N1CCN(S(=O)(=O)c2ccc(NC(C)=O)cc2)CC1	inactive: -1.5%
CC(C)c1ccc(NC(=O)C2CC(=O)N(C(C)C)C2)cc1 (centres undefined)	inconclusive: 6.7%
Cc1cc(-c2ccccc2)n(-c2ccccc2)n1	inactive: -9.6%
O=C(Nc1nccs1)C1(c2ccc(Cl)cc2)CC1	inactive: -5.7%
Cc1nc2ccc([N+](=O)[O-])cc2c(=O)n1Cc1ccc(Cl)cc1	inconclusive: -7.9%
COC(=O)c1ccccc1-n1c(C)nc(=O)c(-c2ccccc2)c1C	inconclusive: -3.9%
COc1ccc(CCNC(=O)c2ccc(S(=O)(=O)N(C)c3ccccc3)cc2)cc1OC	inactive: 13.1%
COc1cccc(-c2cc(C(=O)Nc3ccc(N(C)C(C)=O)cc3)c3cc(Br)ccc3n2)c1	inconclusive: 10%
CCCc1cc(=O)[nH]c(SCCc2ccccc2)n1	inconclusive: -6.7%
COc1ccccc1CN1CCCC(C(=O)N2CCCCC2)C1 (centres undefined)	inconclusive: 56.1%
Nc1nc2ccccc2n1/N=C/c1ccc2c(c1)OCO2	inconclusive: -27.3%
CC1=[N+](C)N(c2ccccc2)C(=O)C1N=C/C=C/c1ccccc1 (centres undefined)	inconclusive: -3.7%
Cc1ccc(-c2c(C)sc3nc[nH]c(=O)c23)cc1C	inconclusive: -60.7%
CCOC(=O)c1sc2cc([N+](=O)[O-])cc(SCC(C)C)c2c1N	inactive: 18.1%
COc1ccc(NC(=O)C2c3ccccc3OCC(=O)N2Cc2ccc3c(c2)OCO3)cc1 (centres undefined)	inactive: 0.9%

SMILES	inhibition
BrCC1C[n+]2c(SCc3ccccc3)nc3sc4c(c3c2O1)CCCC4 (centres undefined)	inconclusive: -41.3%
CCn1cc(CNC(=S)Nc2cccc(Cl)c2C)cn1	inactive: 0.2%
CCOc1c(Nc2ccc(C(C)C)cc2)c(=O)c1=O	inconclusive: 5.3%
Cc1ccc(OCCC(=O)Nc2ccc(S(=O)(=O)N3CCCC3)cc2)cc1	inactive: -0.8%
COc1cccc(CN(C)C(=O)C2CCCN(C(=O)c3ccc(Cl)cc3)C2)c1 (centres undefined)	inactive: 3%
CCCCNC(=O)C(NC(=O)c1cccc(C(F)(F)F)c1)C(=O)c1ccccc1 (centres undefined)	inactive: -7.5%
O=C(Nc1ccccc1)c1cccc(N2C(=O)C3C4CC(C(Br)C4Br)C3C2=O)c1 (centres undefined)	inactive: -4.6%
O=C(NNc1cccc(Cl)n1)c1c(Cl)cccc1Cl	inconclusive: 4.1%
O=C(Nc1ccc(F)cc1)Nc1cccc(Br)c1	inconclusive: 34.6%
Cc1cc2nc(-c3ccc(Cl)cc3)c(CC(C)(C)C)n2c(C)c1Br	inactive: 6.5%
O=C(O)c1ccn2c(C(=O)c3ccc(Cl)cc3)c(-c3ccccc3)cc2c1	inconclusive: 13%
Cc1ccc(NC(=O)COC(=O)CN2C(=O)COc3ccccc32)cc1	inconclusive: 14%
COc1ccc(CN2CCOCCOCCOCCOCC2)cc1	inconclusive: 31.3%
CC(C(=O)N1CCCc2ccccc21)N1CCN(c2ccccn2)CC1 (centres undefined)	inactive: -10%
COCCNC(=O)C(=O)N/N=C(\C)CC(=O)Nc1cccc(C(F)(F)F)c1	inconclusive: -35.1%
CCc1ccc(NC(=O)CC2C(=O)N(c3ccc(OC)cc3)C(=O)N2CCOC)cc1 (centres undefined)	inconclusive: 5.1%
CCOc1ccc(NC(=O)CN(C)C(=O)c2ccccc2OCc2cccc(C)c2)cc1OCC	inconclusive: -5.6%
Cc1ccc2cc(C(c3nnnn3C3CCCC3)N(Cc3ccco3)Cc3cccs3)c(=O)[nH]c2c1 (centres undefined)	inactive: -5.1%
CCCOC(=O)c1cc(-c2ccc(C=O)o2)ccc1Cl	inactive: 1%
CNC(=O)O/N=C/c1nn(C(=O)C(C)(C)C)cc1Br	inconclusive: -70.1%

SMILES	inhibition
CC(=O)c1c(C)nc(-c2ccc(Cl)cc2)nc1N	active: 50.4%
COc1cccc(N2CCC(N3CCN(C)C(CCO)C3)CC2)c1 (centres undefined)	inconclusive: -7.5%
CCOC(=O)c1cc(-c2cc3ccccc3o2)nc2c1c(=O)[nH]c(=O)n2CCOC	inconclusive: -26.5%
O=C1NC(=O)N(c2cccc(F)c2)C(=O)/C1=C/c1ccc(N2CCOCC2)cc1	inconclusive: 6.1%
O=C(N/N=C/C1C(c2ccccc2)C1(Cl)Cl)c1cccc(Br)c1 (centres undefined)	inactive: 4.7%
CCC(C(=O)N1CCC2(CC1)OCCO2)c1ccccc1 (centres undefined)	inactive: 1%
N#CC1=C(N)Oc2cc(N)ccc2C1c1cccc(Br)c1 (centres undefined)	inconclusive: -5.1%
Cc1cc[n+]2c3c(cccc13)CCC2	inactive: -4.9%
Cc1nn(C)c(C)c1S(=O)(=O)N1CCCC(C(=O)NC2CCCCC2)C1 (centres undefined)	inconclusive: -18.7%
CN(C)S(=O)(=O)c1ccc(C(=O)Nc2ccc3c(c2)CCC3)cc1	inconclusive: -34.6%
CC1=NN(C(=O)COc2cc(C)ccc2C(C)C)C(O)(c2ccccc2)C1 (centres undefined)	inconclusive: 24.5%
CCCn1c(/C=C/c2cc[n+](C)cc2)nc2ccccc21	inconclusive: -19.8%
Cc1cc(O)c(C(=O)/C=C/c2cccc([N+](=O)[O-])c2)c(=O)o1	inconclusive: -56.9%
CCOC(=O)CNC(=O)CSc1nc(C)cc(C)c1C#N	inconclusive: -37%
O=C(c1cccs1)N(Cc1ccccn1)Cc1ccco1	inactive: -0.6%
O=C(NCS(=O)(=O)c1ccccc1)c1ccccc1	active: 36%
O=C(NNC(=O)c1ccc(Oc2cc(Cl)cc(Cl)c2)o1)c1ccccc1	inconclusive: 33.4%
Cc1ccc2c(c1)-c1cc(C)ccc1C2=O	inactive: 3.6%
O=C(c1sc2ccccc2c1Cl)N1CCN(c2ccccn2)CC1	inactive: 11.1%

In the list so far, 2 contain two or more sulfur atoms.
SMILES	inhibition
CCOC(=O)c1sc2cc([N+](=O)[O-])cc(SCC(C)C)c2c1N	inactive: 18.1%
BrCC1C[n+]2c(SCc3ccccc3)nc3sc4c(c3c2O1)CCCC4 (centres undefined)	inconclusive: -41.3%
